Measured values reported in patent publication US12535491B2, “Vaccine comprising protein-targeted (PT) extracellular DNA isolated from bacterial matrix” (priority 2018, dated 2026).

B1: ITIH1_HUMAN (protein, UniProt P19827 35-672, looked up)
Inter-alpha-trypsin inhibitor …: SKSSEKRQAVDTAVDGVFIRSLKVNCKVTSRFAHYVVTSQVVNTANEAREVAFDLEIPKTAFISDFAVTADGNAFIGDIKDKVTAWKQYRKAAISGENAGLVRASGRTMEQFTIHLTVNPQSKVTFQLTYEEVLKRNHMQYEIVIKVKPKQLVHHFEIDVDIFEPQGISKLDAQASFLPKELAAQTIKKSFSGKKGHVLFRPTVSQQQSCPTCSTSLLNGHFKVTYDVSRDKICDLLVANNHFAHFFAPQNLTNMNKNVVFVIDISGSMRGQKVKQTKEALLKILGDMQPGDYFDLVLFGTRVQSWKGSLVQASEANLQAAQDFVRGFSLDEATNLNGGLLRGIEILNQVQESLPELSNHASILIMLTDGDPTEGVTDRSQILKNVRNAIRGRFPLYNLGFGHNVDFNFLEVMSMENNGRAQRIYEDHDATQQLQGFYSQVAKPLLVDVDLQYPQDAVLALTQNHHKQYYEGSEIVVAGRIADNKQSSFKADVQAHGEGQEFSITCLVDEEEMKKLLRERGHMLENHVERLWAYLTIQELLAKRMKVDREERANLSSQALQMSLDYGFVTPLTSMSIRGMADQDGLKPTIDKPSEDSPPLEMLGPRRTFVLSALQPSPTHSSSNTQRLPDRVTGVDTD
B2: VTDB_HUMAN (protein, UniProt P02774 17-474, looked up)
Vitamin D-binding protein: LERGRDYEKNKVCKEFSHLGKEDFTSLSLVLYSRKFPSGTFEQVSQLVKEVVSLTEACCAEGADPDCYDTRTSALSAKSCESNSPFPVHPGTAECCTKEGLERKLCMAALKHQPQEFPTYVEPTNDEICEAFRKDPKEYANQFMWEYSTNYGQAPLSLLVSYTKSYLSMVGSCCTSASPTVCFLKERLQLKHLSLLTTLSNRVCSQYAAYGEKKSRLSNLIKLAQKVPTADLEDVLPLAEDITNILSKCCESASEDCMAKELPEHTVKLCDNLSTKNSKFEDCCQEKTAMDVFVCTYFMPAAQLPELPDVELPTNKDVCDPGNTKVMDKYTFELSRRTHLPEVFLSKVLEPTLKSLGECCDVEDSTTCFNAKGPLLKKELSSFIDKGQELCADYSENTFTEYKKKLAERLKAKLPDATPTELAKLVNKHSDFASNCCSINSPPLYCDSEIDAELKNIL

Test system: heat-resistant proteins of human plasma
Assay: LC/MS of heat-resistant proteins in plasma after exposure to proteinase K and boiling

Molecule	N-plasma + pK (LC/MS, healthy human blood plasma after incubation for 30 minutes with Proteinase K, following heating for 100° C. for 5 minutes (probe_2))	N-plasma + pk (LC/MS, control plasma with added proteinase K, heated at 100° C. for 5 minutes)	Effect (N-plasma + pk vs N-plasma) (change on adding proteinase K to normal plasma)
B1	23	–	–
B2	–	32	↑
